Laboratory results as given in publication PMC5932879.
Results are given in words; binding and its absence hold for the method and conditions named. A result given as binding can be weak or reduced; the word gives no strength. Sequences can lack the tags named with a protein.

By UniProt entry, the sequences of proteins in these tests, tags left out. Where a name states a change or a piece, a line headed by the entry shows the natural chain unless it says otherwise.
UniProt Q9UNA0: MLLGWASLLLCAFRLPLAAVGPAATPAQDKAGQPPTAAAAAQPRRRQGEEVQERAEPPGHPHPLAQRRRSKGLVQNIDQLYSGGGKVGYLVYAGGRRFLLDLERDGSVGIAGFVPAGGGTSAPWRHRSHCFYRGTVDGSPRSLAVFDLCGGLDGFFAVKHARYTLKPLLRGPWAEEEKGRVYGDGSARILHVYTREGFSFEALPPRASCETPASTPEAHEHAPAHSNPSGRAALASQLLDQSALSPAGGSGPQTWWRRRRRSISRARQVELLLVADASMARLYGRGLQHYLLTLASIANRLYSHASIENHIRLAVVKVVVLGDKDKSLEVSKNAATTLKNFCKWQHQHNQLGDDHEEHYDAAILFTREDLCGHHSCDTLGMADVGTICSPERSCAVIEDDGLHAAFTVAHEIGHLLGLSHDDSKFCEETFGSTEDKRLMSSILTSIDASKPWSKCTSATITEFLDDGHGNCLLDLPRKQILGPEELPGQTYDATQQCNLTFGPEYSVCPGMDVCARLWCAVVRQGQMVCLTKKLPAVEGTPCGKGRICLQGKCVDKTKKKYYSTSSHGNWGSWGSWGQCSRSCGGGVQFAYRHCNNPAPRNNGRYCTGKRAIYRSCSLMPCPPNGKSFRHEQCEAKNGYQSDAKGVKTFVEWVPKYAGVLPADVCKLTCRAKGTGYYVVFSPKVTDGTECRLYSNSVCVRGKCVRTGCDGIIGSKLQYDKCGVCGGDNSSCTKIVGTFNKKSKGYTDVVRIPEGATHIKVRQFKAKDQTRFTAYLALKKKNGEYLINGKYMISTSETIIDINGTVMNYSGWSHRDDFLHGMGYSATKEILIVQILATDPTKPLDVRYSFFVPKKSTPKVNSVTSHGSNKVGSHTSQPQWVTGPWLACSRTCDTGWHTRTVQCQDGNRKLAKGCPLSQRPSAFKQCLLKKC

Key:
[1] = target: recombinant human ADAMTS5 (human) (UniProt Q9UNA0); assay: ELISA; solid phase binding assay: ELISA plates coated with BSA (blanks), collagen I, collagen II or ADAMTS5 (2–250 ng/well), blocked with BSA, incubated with Ucma (100 ng/ml); bound Ucma detected with anti-FLAG antibody, anti-mouse-IgG-HRP, o-phenylenediamine, 492 nm; both purified
[2] = target: recombinant human ADAMTS5 (human) (UniProt Q9UNA0); assay: far-Western, overlay or dot blot; slot blot binding assay: ADAMTS5, collagen I and collagen II immobilised on PVDF membranes by vacuum blotting, blocked with BSA, incubated with recombinant Ucma (100 ng/μl) or BSA; bound Ucma detected with anti-FLAG or anti-Ucma (UCMA-1) antibody, HRP secondary antibody and ECL; both purified

binding [1]: binds
binding [2]: binds
B1: Upper zone of growth plate and cartilage matrix associated protein (Ucma), recombinant His-FLAG-tagged (protein, UniProt Q14BU0 28-138)
chain: SVGSRQAAAEGVQEGVKQKIFMQESDASNFLKRRGKRSPKSRDEVNAENRQRLRDDELRREYYEEQRNEFENFVEEQRDEQEERTREAVEQWRQWHYDGLYPSYLYNRQNI
